No constants are given. Whether binding was seen depends on the method and setting. Some results given as binding are weak or reduced against the parent protein; the word gives no strength. Where a sequence is shown, tags or fusion partners need not be part of it.

To fix the notation:
T1: AorA of the variant Δhelix-AOR, lacking the AorA residues from 138 to the C terminus (Aromatoleum aromaticum) (UniProt Q5P144)
T1 sequence: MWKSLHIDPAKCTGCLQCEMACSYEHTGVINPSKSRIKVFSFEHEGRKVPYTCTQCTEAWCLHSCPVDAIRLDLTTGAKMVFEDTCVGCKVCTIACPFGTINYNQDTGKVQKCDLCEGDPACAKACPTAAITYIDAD

B1: AorC, FAD-containing NAD-binding subunit of the aldehyde oxidoreductase from Aromatoleum aromaticum (AORAa) (natural protein)
chain: MKHVILGNGPAGVIAAETLRRAAPTDDILLFGSEDAPPYSRMAIPYLLEGNIDESGTWLRKSPGHFDRLRIHEMRGRAVSLDSERRRILFDDGHFESWDRLLIATGSHPVRPPIPGIDLPEVQTCWTLEDARAIARFATPGARVLQLGAGFIGCIIMEALAARGVELTVVEMGDRMVPRMMTPTAGGMIRKWVEDQGVRVVTNAGVSRIDCRASNDAPLDVTLSTGEVVVADLVIVAAGVAPNIAFLEATPVHVAKGVLVDDRLQTSVPGIFAAGDVAEAPDLFTGAHLVAAIQPNAADQARVAALNMAGHEARLKGVLAINVLDTLGLISSSFGQWWGEERERGGAGVEHVDEAAYRYLSLQFKDDVLIGATSIGLTEHVGALRGLIHGRVRLGEWKERLLHSPLQFVDAYIARSQQPMALVR
notes: AorC of Aromatoleum aromaticum, Rossmann fold with an extended C-terminal domain of three α helices; A single copy per Aor(AB)nC complex; also called FAD-containing subunit; source: Aromatoleum evansii, heterologous expression of the AOR plasmid; Superdex 200 gel filtration for the wild-type complex, not for Δhelix-AOR
B2: AorB, catalytic tungsten-cofactor-containing subunit of the aldehyde oxidoreductase from Aromatoleum aromaticum (AORAa) (protein)
chain: MGWNRKVLRVNLAEGTCTPEPLNMQWADEYLGSRGLATKYLVSETDPKVDPLSPDNKMIMATGPLTGTMASTGGRYTVVTKGPLTGAIACSNSGGFFGAEMKFAGWDMVIFEGRSPTPVYLFIENERAELRDASYLWGRSCWETEESIRAQHQDPLIRVSSIGRAGENQVMFACIVNDLHRAAGRSGVGAVMGSKNLKAVAIRGTKGVSGIRDFPGFVRATSEAKKVLAGNPVTSEGLPKFGTQVLMNVINEMGALPTRNHRDVQFEDASKISAEAMHEKRPSDGKPQLVTNAACFGCTIACGRISAIDKTHFTVKNNPKYWGASGGLEYEAAWALGAANGVGDLEALQYANLLCNEQGMDPISFGATVGAAMELYETGVLTKERIGLDAPFGSADALAKLAEMTATGEGFGKEIGLGSKRLCEKYGHPELSMSVKGQEFPAYDSRGIQGMGLAYATSNRGACHLRGYTVASEVLGVPVKTDPHVIEGKAELVKAFQDATAVFDSAGICVFTSFAWTLADVQPQIAAACDGDWSMDKLATVGERIWNMERQFNNAAGLGAQDDNLPPRLTSEPAKSGPAKGMVNRLAEMLPEYYGVRGWTPEGTPTPETLSRLGLS
B3: AorA of the variant Δhelix-AOR, lacking the AorA residues from 138 to the C terminus (domain or fragment, UniProt Q5P144 1-137)
chain: T1 sequence

For the assay, the target named is T1, AorA of the variant Δhelix-AOR, lacking the AorA residues from 138 to the C terminus (Aromatoleum aromaticum). Kind of assay: mass photometry; OneMP mass photometer, 10 mM tris pH 8.0, 100 mM KCl, 0.1 mM EDTA, room temperature, sample diluted 10-fold just before measurement; 50 nM in Fig. 2D, E; both purified.
As to B1, the binding entry is “binds”.

For B2, the binding entry is listed as “binds”.

As to B3, the binding entry is “no binding (tested: 50 nM)”.
